PubChem BioAssay AID493014 (National Center for Advancing Translational Sciences (NCATS), 2011)
Some of the results follow. Shown are side measurements of this screen, not its main read-out; they come without a call. Compounds called inactive in the main read-out are mostly missing here. Potencies come from curve fits of mixed quality, noted in brackets.

Test: qHTS Assay to Find Inhibitors of Chronic Active B-Cell Receptor Signaling
Conditions: ABC-DLBCL IkBa-CBG/CBR reporter, luminescence ratio (green luciferase fused to IkBa over red control in TMD8 lymphoma cells), 4 h
Procedure, shortened: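 Compounds up to 46 uM were incubated four hours with TMD8 cells whose green CBG68 luciferase is fused to IkappaBalpha; red CBR luminescence normalised the signal, and concentration-effect curves were fitted to fusion, red and ratio data.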

[1] = measured here: CBR red luminescence, cell number
[2] = measured here: IkBa-CBG green luminescence

| Structure (SMILES) | AC50 [1] | AC50 [2] |
| --- | --- | --- |
| CCN1C(Nc2ccccc2)=NC[C@@H]1Cc1ccccc1 | 2.51 µM [falling, full curve] |  |
| COc1cccc(-c2nc(CS(=O)CC(=O)NCCc3ccccc3)c(C)o2)c1 (configuration not stated) | 1.26 µM [rising, partial curve, poor fit] |  |
| COC(=O)c1ccccc1NC(=O)CSc1nccn1C | 25.1 µM [falling, single point] |  |
| CCOC(=O)C1=C(O)/C(=C/c2ccc(OCC(=O)O)c(OCC)c2)SC1=Nc1ccccc1 | 0.891 µM [rising, partial curve] | 3.16 µM [falling, partial curve, poor fit] |
| O=C(C1=NNCC1c1ccc(Cl)cc1)C1CO1 (configuration not stated) |  | 29.1 µM [rising, partial curve, poor fit] |
| CCOCCCNS(=O)(=O)c1ccc2c(c1)CCN2C(=O)CC | 3.66 µM [falling, single point] |  |
| Cc1nnc(SCC(=O)N2c3ccccc3C(C)(c3ccc(Cl)cc3)CC2(C)C)s1 (configuration not stated) | 18.4 µM [falling, single point] |  |
| Cc1cc(C)nc(S/C=C/C(=O)c2ccc(F)cc2)n1 | 5.62 µM [rising, partial curve, poor fit] |  |
| Cc1ccc(NC(=O)c2cc(S(=O)(=O)NCCC3=CCCCC3)ccc2F)cc1 | 20.6 µM [falling, single point] |  |
| CCc1ccc(NC(=O)CN(CC(=O)Nc2ccc(CC)cc2)CC(C)O)cc1 (configuration not stated) | 35.5 µM [falling, partial curve, poor fit] |  |
| COc1cc(NC(=O)Cn2cnc3c(NCc4ccccc4)ncnc32)cc(OC)c1OC | 16.4 µM [rising, single point] |  |
| COC(=O)[C@@]1(Cc2ccc(OC)cc2)[C@H]2c3cc(C(=O)N(C)C)n(CCSCCO)c3C[C@H]2CN1C(=O)c1ccccc1 | 18.4 µM [falling, partial curve, poor fit] |  |
| COc1ccccc1NC(=O)CC1Nc2ccccc2NC1=O (configuration not stated) | 18.4 µM [falling, partial curve] |  |
| Cc1cc(C)nc(NC(=O)c2cccs2)n1 | 6.31 µM [falling, partial curve, poor fit] |  |
| O=c1cc(NC2CCCCCC2)[nH]c(=O)[nH]1 | 0.116 µM [falling, full curve, poor fit] |  |
| CCOC(=O)c1nnc2c(Br)c(-c3ccccc3)nn2c1C | 29.1 µM [falling, single point] | 13 µM [rising, partial curve, poor fit] |
| Cc1ccsc1/C=N/Nc1nc2ccccc2s1 | 16.4 µM [falling, partial curve] |  |
| CC(=O)Oc1ccc(Cl)cc1/C=C/c1cc(OC(C)=O)c2ccccc2n1 |  | 23.1 µM [rising, partial curve, poor fit] |
| CC1(C)CC(=O)C=C(c2ccc(Cl)c(C(F)(F)F)c2)C1 | 32.6 µM [rising, single point] |  |
| CCC(=C/c1sc2ccc3ccccc3c2[n+]1C)/C=C1\Sc2ccc3ccccc3c2N1C | 10 µM [rising, partial curve] | 11.2 µM [falling, partial curve] |
| O=C(OCC(=O)c1ccc[nH]1)c1ccc(Cl)nc1 | 0.82 µM [rising, full curve, poor fit] |  |
| Cc1cccc(C(=O)Nc2ccccc2C(=O)NCc2ccco2)c1 | 22.4 µM [falling, single point] |  |

Record cards (already shown):
CCOC(=O)C1=C(O)/C(=C/c2ccc(OCC(=O)O)c(OCC)c2)SC1=Nc1ccccc1 is listed as AC50 [1]: 0.891 µM [rising, partial curve]; AC50 [2]: 3.16 µM [falling, partial curve, poor fit]
COC(=O)c1ccccc1NC(=O)CSc1nccn1C is listed as AC50 [1]: 25.1 µM [falling, single point]
CCc1ccc(NC(=O)CN(CC(=O)Nc2ccc(CC)cc2)CC(C)O)cc1 (configuration not stated) is listed as AC50 [1]: 35.5 µM [falling, partial curve, poor fit]
O=C(OCC(=O)c1ccc[nH]1)c1ccc(Cl)nc1 is listed as AC50 [1]: 0.82 µM [rising, full curve, poor fit]

Remaining list, next part.

| Structure (SMILES) | AC50 [1] | AC50 [2] |
| --- | --- | --- |
| CNC(=O)Nc1cccc(-c2cc(-c3c(Cl)cccc3Cl)no2)c1 | 35.5 µM [falling, single point] |  |
| Cc1cc(OC(C(=O)O)c2ccccc2)c2c(C)c(Cc3ccccc3)c(=O)oc2c1 (configuration not stated) | 35.5 µM [falling, single point] |  |
| C[N+]12CCCCC1C(COC(=O)c1ccc3c(c1)OCO3)CCC2 (configuration not stated) | 29.1 µM [rising, single point] |  |
| CC(C)N1C(=O)CCC1C(=O)NCCc1ccccc1 (configuration not stated) | 22.4 µM [rising, single point] |  |
| COc1cc([N+](=O)[O-])ccc1NC(=O)CCCOc1ccccc1 | 2.51 µM [rising, full curve, poor fit] |  |
| C=CCn1c(N)c(C(=O)NCC2CCCO2)sc1=S (configuration not stated) | 2.59 µM [rising, single point] |  |
| Cc1csc(SCC(=O)NC2CCCC2)n1 | 2.31 µM [falling, partial curve] |  |
| CC(=O)Oc1cccc(-c2nc3ccccc3c(=O)o2)c1 | 7.94 µM [falling, partial curve, poor fit] |  |
| Clc1ccc(SCc2cc(-c3ccccc3)no2)cc1 | 0.562 µM [rising, full curve, poor fit] |  |
| CC(NC(=O)c1c(O)c2ccccc2n(C)c1=O)c1ccccc1 (configuration not stated) | 12.6 µM [falling, partial curve, poor fit] |  |
| CCOc1cc(N2CCOCC2)c(OCC)cc1NC(=O)CSc1ncccc1C(=O)O | 14.6 µM [rising, partial curve, poor fit] |  |
| COc1ccccc1NC(=O)COC(=O)CCc1ccc(S(=O)(=O)N2CCOCC2)cc1 | 0.82 µM [falling, full curve, poor fit] |  |
| CC(C)N(C(=O)[C@H]1C[C@H](CC(=O)NCc2cccc(C(F)(F)F)c2)C(=O)N2CCc3c([nH]c4ccc(Cl)cc34)[C@]12C)C(C)C | 2.31 µM [rising, partial curve, poor fit] |  |
| CN(C(=O)c1ccccc1C(=O)OCC(=O)Nc1ccccc1)c1ccccc1 | 23.1 µM [falling, single point] |  |
| Cc1ccc2nc(SCc3ccc([N+](=O)[O-])cc3)[nH]c2c1 | 12.6 µM [falling, single point] |  |
| O=C(CSc1c2c(nc3cc(Cl)ccc13)CCCC2)NCc1ccco1 | 2.06 µM [falling, partial curve, poor fit] |  |
| Cc1ccc(C(=O)Nc2nc(=O)n(C(=O)C3CC3)s2)cc1 | 11.6 µM [falling, single point] |  |
| Nc1ccccc1SC1CC(=O)N(c2ccc(Cl)c(Cl)c2)C1=O (configuration not stated) | 0.447 µM [rising, full curve, poor fit] |  |
| COc1cccc(NC(=O)C2C3C=CC(O3)C2C(=O)NCc2cccnc2)c1 (configuration not stated) | 14.1 µM [falling, single point] |  |
| CCc1nc(SCC(=O)NCc2ccco2)c2c3c(sc2n1)CCCC3 | 23.1 µM [rising, partial curve, poor fit] |  |
| CCCNS(=O)(=O)c1ccc(OCC(=O)NCCCOC)cc1 | 29.1 µM [rising, single point] |  |
| c1ccc(-c2noc(CN3CCN(c4ccccc4)CC3)n2)cc1 | 6.51 µM [rising, single point] |  |

| Structure (SMILES) | AC50 [1] | AC50 [2] |
| --- | --- | --- |
| Cc1nc2ccccc2n1/N=C/c1cccnc1 | 23.1 µM [falling, partial curve, poor fit] |  |
| CC(=O)c1cnc2cc(-c3cccc(Br)c3)nn2c1C | 14.1 µM [rising, partial curve, poor fit] |  |
| Cc1ccccc1N=C1SC(CC(=O)Nc2ccc3ccccc3c2)C(=O)N1Cc1ccccn1 (configuration not stated) | 18.4 µM [falling, partial curve, poor fit] |  |
| CC1CC(=O)C2=C(C1)Nc1ncnn1C2c1ccccc1 (configuration not stated) | 32.6 µM [falling, single point] |  |
| COC(=O)Cc1ccc2c3ccccc3n(C)c2c1 | 14.1 µM [rising, single point] |  |
| C=CCc1ccccc1OCC(O)CN1CCN(CCN2C(=O)c3cccc4cccc(c34)C2=O)CC1 (configuration not stated) | 2.31 µM [rising, partial curve, poor fit] |  |
| COc1ccc(CCNC(=O)c2ccc([N+](=O)[O-])cc2)cc1 | 35.5 µM [rising, single point] |  |
| Cc1ccc(C2C3=C(Nc4[nH]n(-c5ccccc5)c(=O)c42)c2ccccc2C3=O)cc1 (configuration not stated) |  | 23.1 µM [rising, partial curve, poor fit] |
| COc1ccccc1CNc1ncc(-c2ccc(F)cc2)n1C | 14.1 µM [falling, partial curve, poor fit] |  |
| COc1ccc(C(Nc2cc(C)ccn2)c2ccc3ccc(C)nc3c2O)cc1 (configuration not stated) | 12.6 µM [falling, partial curve] |  |
| Cc1ccc(NC(=O)C(=O)NCC2CCCO2)cc1C (configuration not stated) | 14.1 µM [falling, partial curve] |  |
| Cc1ccc(C(=O)Nc2ccccc2C(=O)NC(Cc2ccccc2)C(=O)O)cc1 (configuration not stated) | 15.8 µM [falling, single point] |  |
| CCN(CCCNC(=O)c1cc2cc3ccc(OC)cc3nc2s1)c1ccccc1 | 18.4 µM [rising, single point] |  |
| Cc1cc(C)n(C(=O)c2cc3sccc3[nH]2)n1 | 23.1 µM [rising, partial curve, poor fit] |  |
| CCOc1cc(CNCc2ccccc2)ccc1OCc1ccc(Cl)cc1 | 7.08 µM [falling, partial curve, poor fit] |  |
| Cc1ccc(Cl)cc1NC(=O)C1C2CCC(O2)C1C(=O)O (configuration not stated) | 15.8 µM [rising, single point] |  |
| O=C(NCCCc1ccccc1)c1ccc(CS(=O)Cc2ccc(Cl)cc2)o1 (configuration not stated) | 20 µM [falling, single point] |  |
| CNC(=O)c1c(NC(=O)c2cccc(C)c2)sc2c1CCC2 | 10 µM [falling, partial curve] |  |
| Cc1ccc(NC(=O)CSc2nncs2)cc1Cl | 5.8 µM [rising, single point] |  |
| CC1(C)CC(CC(=O)O)(c2ccc(Cl)cc2)CCO1 (configuration not stated) | 0.326 µM [falling, full curve, poor fit] |  |
